Measured values from PubChem BioAssay (EPA / NIEHS).
The shares of active, inactive and inconclusive entries below differ from those in the screen. For some assays here: Where the call is inconclusive, the potency comes from a doubtful curve fit. Where a structure was tested more than once in an assay, its records may differ in their call. Calls of active or inactive are those of the source. The calls were made as follows: active = hit-call score of the fitted dose curve at least 0.9, where 1 is the maximum; inconclusive = response in the unintended direction; inactive = score below 0.9.

Protein sequences, listed by entry. Tags and fused reporters are not part of them. Lines headed by an entry give the natural chain unless they say otherwise; changes in a name come on top.
UniProt P08684, whole entry, looked up: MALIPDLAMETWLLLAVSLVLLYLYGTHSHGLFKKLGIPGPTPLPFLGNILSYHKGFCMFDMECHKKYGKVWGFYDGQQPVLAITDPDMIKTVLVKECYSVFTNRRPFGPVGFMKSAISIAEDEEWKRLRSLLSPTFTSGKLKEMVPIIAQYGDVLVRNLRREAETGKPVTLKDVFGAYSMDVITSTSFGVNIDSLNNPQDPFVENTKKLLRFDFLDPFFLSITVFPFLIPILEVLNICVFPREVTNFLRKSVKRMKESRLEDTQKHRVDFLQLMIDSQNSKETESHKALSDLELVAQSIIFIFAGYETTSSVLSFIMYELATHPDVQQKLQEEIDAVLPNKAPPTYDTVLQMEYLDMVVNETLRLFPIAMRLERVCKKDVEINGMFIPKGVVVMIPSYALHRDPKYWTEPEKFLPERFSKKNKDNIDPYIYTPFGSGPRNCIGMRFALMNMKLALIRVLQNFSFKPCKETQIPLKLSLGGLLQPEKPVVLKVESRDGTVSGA
UniProt P03372, whole entry, looked up: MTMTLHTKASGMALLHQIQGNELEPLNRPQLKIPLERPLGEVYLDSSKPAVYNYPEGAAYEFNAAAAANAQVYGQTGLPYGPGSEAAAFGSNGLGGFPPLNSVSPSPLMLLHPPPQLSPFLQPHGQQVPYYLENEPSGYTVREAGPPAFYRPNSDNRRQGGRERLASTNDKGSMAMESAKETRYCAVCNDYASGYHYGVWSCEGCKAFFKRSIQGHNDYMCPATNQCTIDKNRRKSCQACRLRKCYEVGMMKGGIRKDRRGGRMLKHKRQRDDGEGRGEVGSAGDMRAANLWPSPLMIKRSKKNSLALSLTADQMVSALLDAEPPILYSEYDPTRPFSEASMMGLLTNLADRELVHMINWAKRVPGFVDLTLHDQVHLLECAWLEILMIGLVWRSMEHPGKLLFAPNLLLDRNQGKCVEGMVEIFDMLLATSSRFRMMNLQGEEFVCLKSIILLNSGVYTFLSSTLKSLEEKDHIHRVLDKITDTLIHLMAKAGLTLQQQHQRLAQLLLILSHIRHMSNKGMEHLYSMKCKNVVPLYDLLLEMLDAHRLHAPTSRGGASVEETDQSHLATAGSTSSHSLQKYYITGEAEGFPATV
UniProt P29074: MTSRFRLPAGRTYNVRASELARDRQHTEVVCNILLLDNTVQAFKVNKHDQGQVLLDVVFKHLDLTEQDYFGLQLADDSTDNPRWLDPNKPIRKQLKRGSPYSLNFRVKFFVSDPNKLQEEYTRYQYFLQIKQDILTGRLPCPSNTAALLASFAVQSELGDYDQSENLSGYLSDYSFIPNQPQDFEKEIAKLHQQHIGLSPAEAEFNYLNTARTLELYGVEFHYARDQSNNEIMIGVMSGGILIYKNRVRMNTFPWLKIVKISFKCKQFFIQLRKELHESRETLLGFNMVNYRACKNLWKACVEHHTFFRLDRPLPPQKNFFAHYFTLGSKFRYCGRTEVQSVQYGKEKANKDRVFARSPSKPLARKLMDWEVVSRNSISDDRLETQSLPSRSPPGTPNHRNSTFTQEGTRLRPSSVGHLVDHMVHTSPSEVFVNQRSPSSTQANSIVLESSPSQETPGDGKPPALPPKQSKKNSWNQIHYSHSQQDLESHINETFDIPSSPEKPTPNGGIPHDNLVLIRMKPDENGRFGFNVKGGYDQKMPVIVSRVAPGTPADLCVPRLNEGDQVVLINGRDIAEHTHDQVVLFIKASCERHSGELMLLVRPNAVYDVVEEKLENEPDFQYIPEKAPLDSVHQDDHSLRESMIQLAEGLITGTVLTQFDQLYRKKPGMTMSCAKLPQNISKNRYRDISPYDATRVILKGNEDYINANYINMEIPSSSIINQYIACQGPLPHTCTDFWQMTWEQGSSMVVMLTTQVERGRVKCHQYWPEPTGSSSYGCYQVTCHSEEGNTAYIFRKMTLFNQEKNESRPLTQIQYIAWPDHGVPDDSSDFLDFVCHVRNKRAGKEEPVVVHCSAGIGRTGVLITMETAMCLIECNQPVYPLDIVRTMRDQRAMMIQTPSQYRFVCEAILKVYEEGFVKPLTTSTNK
UniProt P35916, whole entry, looked up: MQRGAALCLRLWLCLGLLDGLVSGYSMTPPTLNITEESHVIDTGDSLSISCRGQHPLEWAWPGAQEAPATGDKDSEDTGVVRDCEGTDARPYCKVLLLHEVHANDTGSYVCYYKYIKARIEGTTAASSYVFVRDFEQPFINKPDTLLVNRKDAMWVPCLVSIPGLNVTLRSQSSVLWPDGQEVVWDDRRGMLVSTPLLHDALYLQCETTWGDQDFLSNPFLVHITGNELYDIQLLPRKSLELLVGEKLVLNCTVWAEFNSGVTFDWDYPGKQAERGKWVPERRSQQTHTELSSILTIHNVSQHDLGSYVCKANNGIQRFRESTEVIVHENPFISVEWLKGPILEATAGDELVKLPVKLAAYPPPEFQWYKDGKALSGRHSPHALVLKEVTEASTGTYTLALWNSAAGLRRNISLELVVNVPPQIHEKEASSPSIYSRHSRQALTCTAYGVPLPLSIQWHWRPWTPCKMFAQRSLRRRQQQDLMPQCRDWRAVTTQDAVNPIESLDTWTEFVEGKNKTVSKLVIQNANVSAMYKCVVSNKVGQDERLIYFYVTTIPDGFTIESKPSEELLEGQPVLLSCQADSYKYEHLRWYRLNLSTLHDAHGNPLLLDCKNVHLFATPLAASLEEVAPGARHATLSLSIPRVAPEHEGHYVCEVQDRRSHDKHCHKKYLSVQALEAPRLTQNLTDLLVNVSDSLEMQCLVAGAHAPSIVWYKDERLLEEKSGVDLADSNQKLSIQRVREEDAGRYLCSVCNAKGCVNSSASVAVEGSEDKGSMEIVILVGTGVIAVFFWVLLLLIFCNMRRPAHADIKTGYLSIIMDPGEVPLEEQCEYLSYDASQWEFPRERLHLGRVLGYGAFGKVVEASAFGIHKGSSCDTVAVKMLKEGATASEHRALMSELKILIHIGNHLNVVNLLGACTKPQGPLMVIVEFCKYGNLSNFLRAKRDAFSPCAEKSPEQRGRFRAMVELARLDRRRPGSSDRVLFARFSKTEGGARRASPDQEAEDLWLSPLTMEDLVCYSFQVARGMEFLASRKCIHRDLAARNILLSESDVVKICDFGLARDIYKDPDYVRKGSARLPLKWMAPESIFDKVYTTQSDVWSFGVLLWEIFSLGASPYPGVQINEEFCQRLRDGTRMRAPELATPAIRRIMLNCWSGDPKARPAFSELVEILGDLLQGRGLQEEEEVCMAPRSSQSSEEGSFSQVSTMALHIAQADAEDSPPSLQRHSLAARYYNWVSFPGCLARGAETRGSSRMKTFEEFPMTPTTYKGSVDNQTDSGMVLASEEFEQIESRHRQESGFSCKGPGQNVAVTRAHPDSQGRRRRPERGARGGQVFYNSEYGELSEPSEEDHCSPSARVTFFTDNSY
UniProt O60674: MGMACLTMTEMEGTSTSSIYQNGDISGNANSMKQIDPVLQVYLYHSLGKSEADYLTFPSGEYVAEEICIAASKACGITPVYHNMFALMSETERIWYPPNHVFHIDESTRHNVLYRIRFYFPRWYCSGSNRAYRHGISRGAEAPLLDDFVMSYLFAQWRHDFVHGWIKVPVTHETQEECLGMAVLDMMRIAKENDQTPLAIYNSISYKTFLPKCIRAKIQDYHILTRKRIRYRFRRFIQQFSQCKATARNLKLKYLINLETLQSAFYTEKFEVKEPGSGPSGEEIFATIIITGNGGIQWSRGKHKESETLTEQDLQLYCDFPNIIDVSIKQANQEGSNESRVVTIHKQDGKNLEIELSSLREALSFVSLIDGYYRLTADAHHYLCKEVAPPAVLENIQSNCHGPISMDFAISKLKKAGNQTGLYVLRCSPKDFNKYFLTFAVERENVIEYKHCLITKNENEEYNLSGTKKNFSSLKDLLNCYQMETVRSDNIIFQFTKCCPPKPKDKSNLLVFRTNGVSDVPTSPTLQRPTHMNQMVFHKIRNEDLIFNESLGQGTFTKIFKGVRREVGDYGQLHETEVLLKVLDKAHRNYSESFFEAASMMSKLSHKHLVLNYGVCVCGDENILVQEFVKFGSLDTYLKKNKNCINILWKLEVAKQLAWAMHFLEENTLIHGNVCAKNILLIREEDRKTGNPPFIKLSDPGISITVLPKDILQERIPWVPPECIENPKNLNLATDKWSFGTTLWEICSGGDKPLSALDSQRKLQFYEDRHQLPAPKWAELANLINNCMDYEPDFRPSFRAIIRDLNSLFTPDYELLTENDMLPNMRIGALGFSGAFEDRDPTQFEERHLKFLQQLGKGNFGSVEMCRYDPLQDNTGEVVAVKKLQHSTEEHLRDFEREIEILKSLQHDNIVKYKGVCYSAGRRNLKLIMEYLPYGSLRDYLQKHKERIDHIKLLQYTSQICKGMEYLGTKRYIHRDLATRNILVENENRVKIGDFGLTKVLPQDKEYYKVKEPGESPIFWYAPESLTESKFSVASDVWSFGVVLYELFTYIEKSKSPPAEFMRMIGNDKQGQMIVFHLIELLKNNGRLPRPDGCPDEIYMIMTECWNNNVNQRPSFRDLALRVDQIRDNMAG
UniProt Q05209: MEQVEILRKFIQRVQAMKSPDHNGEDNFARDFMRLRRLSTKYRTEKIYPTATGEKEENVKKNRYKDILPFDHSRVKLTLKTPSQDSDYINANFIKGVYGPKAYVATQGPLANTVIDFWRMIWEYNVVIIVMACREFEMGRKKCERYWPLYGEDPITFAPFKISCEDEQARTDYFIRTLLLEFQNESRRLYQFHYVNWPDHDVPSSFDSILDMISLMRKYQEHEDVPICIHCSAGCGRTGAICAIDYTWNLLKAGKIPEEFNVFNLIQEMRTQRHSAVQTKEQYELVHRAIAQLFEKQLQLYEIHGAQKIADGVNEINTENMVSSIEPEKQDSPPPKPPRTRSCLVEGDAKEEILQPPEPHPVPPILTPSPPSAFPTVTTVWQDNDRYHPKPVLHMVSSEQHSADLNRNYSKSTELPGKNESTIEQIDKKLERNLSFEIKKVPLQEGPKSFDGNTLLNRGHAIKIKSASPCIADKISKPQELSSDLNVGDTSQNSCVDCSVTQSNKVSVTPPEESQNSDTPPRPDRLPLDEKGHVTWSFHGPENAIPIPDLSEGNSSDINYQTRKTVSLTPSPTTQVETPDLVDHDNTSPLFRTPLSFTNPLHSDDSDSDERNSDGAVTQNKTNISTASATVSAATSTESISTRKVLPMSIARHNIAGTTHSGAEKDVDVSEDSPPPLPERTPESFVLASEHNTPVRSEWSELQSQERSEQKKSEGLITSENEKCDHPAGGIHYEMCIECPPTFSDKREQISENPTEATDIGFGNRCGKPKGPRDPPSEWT
UniProt P16177, whole entry, looked up: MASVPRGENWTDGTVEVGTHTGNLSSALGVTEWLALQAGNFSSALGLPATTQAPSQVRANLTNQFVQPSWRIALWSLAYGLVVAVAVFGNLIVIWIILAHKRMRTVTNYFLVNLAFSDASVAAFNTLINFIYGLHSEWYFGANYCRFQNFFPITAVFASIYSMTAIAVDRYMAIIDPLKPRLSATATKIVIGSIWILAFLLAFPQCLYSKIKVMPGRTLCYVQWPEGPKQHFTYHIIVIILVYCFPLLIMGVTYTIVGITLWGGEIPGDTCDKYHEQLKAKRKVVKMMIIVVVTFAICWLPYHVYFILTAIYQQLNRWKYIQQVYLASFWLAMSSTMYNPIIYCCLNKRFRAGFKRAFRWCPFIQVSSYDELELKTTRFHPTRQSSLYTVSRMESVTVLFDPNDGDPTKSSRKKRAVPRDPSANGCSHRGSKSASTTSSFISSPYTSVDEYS
UniProt Q9UNQ0: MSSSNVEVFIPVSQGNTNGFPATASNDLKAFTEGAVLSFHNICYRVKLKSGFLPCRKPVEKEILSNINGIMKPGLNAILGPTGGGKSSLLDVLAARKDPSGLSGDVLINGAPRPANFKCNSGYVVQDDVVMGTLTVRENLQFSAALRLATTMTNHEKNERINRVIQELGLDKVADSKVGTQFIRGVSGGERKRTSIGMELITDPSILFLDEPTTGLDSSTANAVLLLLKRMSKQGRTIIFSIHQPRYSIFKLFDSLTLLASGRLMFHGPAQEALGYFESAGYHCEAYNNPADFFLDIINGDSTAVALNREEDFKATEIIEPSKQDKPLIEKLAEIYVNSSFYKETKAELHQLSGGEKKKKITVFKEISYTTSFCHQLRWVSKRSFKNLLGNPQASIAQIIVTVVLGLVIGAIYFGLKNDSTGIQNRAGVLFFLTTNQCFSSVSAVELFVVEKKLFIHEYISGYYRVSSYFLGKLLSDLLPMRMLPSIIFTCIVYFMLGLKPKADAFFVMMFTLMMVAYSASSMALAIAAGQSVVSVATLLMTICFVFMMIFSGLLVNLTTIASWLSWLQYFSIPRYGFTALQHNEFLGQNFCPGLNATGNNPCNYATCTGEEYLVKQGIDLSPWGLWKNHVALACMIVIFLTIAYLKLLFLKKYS

Experiments:
[1] = read-out: Cytochrome P450 3A4 (Homo sapiens) (UniProt P08684); assay: CLD_CYP3A4_48hr: CellzDirect (CLD) Gene Expression Assay for xenobiotic metabolism (CYP3A4) at 48 hours (AID 2283698)
Procedure, shortened: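 CYP3A4 induction read by qNPA chemiluminescence after 48 h, with fresh dosing solutions on consecutive days, in cultured human hepatocytes (two donors). Vehicle 0.2% DMSO as baseline; microscopy-based cytotoxicity annotated yes/no alongside data.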

[2] = ArunA_Migration_hNP: ArunA Biomedical's Oris Neuroprogenitor (hNP) Cell Migration Assay (AID 2283754)
Procedure, shortened: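 Readout is calcein-AM fluorescence (ex494/em517) of cells migrating into the detection zone, relative to DMSO. hNP1 cells (H9-derived) grown on Matrigel behind stoppers 16 h, then stoppers pulled and chemical applied 72 h; cytochalasin D as control.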

[3] = VALA_MIGHUV2_Bcatenin: VALA Sciences human Umbilical Vein Endothelial Cell Migration (MIGHUV) Assay, Nuclear Translocation of beta-Catenin after Recovery (AID 2284315)
Procedure, shortened: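 Nuclear beta-catenin imaged by immunofluorescence with Hoechst counterstain in fixed HUVEC, 24 h after scratch wounding and chemical addition. Six-point concentration-response in triplicate; activity scored as signal increase over 0.1% DMSO vehicle.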

[4] = target: Sodium channel protein type 1 subunit alpha (Rattus norvegicus) (UniProt P04774); assay: NVS_IC_rNaCh_site2: NovaScreen (NVS) Ion Channel Assay for rat Sodium Channel, Site 2 (NaCh) (AID 2283322);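 also: hit means loss of radioligand binding signal relative to DMSO so AC50 marks displacement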
Procedure, shortened: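 Initial duplicate single-point testing at 25 uM, followed by concentration-response runs for actives. Binding of radioligand to rat forebrain membranes quantified after 1 h via filter-based radiodetection.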

[5] = target: Estrogen receptor (Homo sapiens) (UniProt P03372); assay: CCTE_Deisenroth_AIME_384WELL_LUC_Inactive: CCTE's 384-well Estrogen Receptor Transactivation Assay without AIME metabolic competence (ERTA luciferase; metabolism negative), Deisenroth Lab (AID 2284038);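 also: VM7Luc4E2 breast cells given medium preincubated 2 h with S9-free microspheres; hits raise estrogen receptor luciferase signal so potencies reflect agonists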
Procedure, shortened: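 VM7Luc4E2 ER transactivation, luciferase bioluminescence after 24 h, using medium pre-incubated 2 h with S9-free alginate microspheres. Concentrations 0.002–200 uM; gain of signal fitted relative to 17beta-estradiol.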

[6] = target: human Protein Tyrosine Phosphatase Non-receptor Type 4 (PTPN4), PTPN4 (gene 5775) (UniProt P29074); assay: NVS_ENZ_hPTPN4: NovaScreen (NVS) Enzymatic Assay for human Protein Tyrosine Phosphatase Non-receptor Type 4 (PTPN4) (AID 2283208)
Procedure, shortened: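 Screened in duplicate at 25 uM, with hits then titrated to a top concentration of 50 uM. Recombinant Sf9-derived PTPN4 turnover was read by fluorescence with electrophoretic separation, 1.33 h after compound addition. DMSO served as baseline.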

[7] = target: human Vascular Endothelial Growth Factor Receptor 3 (VEGFR3), FLT4 (gene 2324) (UniProt P35916); assay: NVS_ENZ_hVEGFR3: NovaScreen (NVS) Enzymatic Assay for human Vascular Endothelial Growth Factor Receptor 3 (VEGFR3) (AID 2283229)
Procedure, shortened: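 Chemicals first run in duplicate at 25 uM, with actives re-tested in concentration series to a top of 50 uM. Recombinant VEGFR3 activity measured after 1 h via fluorescence with mobility-shift product separation; inhibition fitted relative to DMSO.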

[8] = target: human Janus Kinase 2 (Jak2), JAK2 (gene 3717) (UniProt O60674); assay: NVS_ENZ_hJak2: NovaScreen (NVS) Enzymatic Assay for human Janus Kinase 2 (Jak2) (AID 2283169)
Procedure, shortened: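 Single-point duplicate screen at 25 uM, with hits run in concentration series to a 50 uM top dose. Substrate-product separation by mobility shift with fluorescence detection, 1 h post-dosing; DMSO baseline.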

[9] = target: human Matrix Metalloproteinase-3 (MMP3), MMP3 (gene 4314) (UniProt P08254); assay: NVS_ENZ_hMMP3: NovaScreen (NVS) Enzymatic Assay for human Matrix Metalloproteinase-3 (MMP3) (AID 2283185)
Procedure, shortened: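 Fluorescent substrate turnover by recombinant MMP3 read after 1 h, signal loss scored against DMSO. Compounds first run in duplicate at 25 uM single dose, then actives confirmed by concentration series.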

[10] = target: Tyrosine-protein phosphatase non-receptor type 12 (Homo sapiens) (UniProt Q05209); assay: NVS_ENZ_hPTPN12: NovaScreen (NVS) Enzymatic Assay for human Protein Tyrosine Phosphatase Non-receptor Type 12 (PTPN12) (AID 2283204)
Procedure, shortened: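 Single-concentration duplicates (25 uM) preceded singleton concentration-response up to 50 uM for chemicals passing threshold. Cell-free recombinant PTPN12 activity was read 1.33 h after dosing via fluorescence after mobility-shift separation; loss of signal versus DMSO.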

[11] = target: guinea pig Bradykinin Receptor B2 (BK2), BDKRB2 (gene 100135486) (UniProt O70526); assay: NVS_GPCR_gBK2: NovaScreen (NVS) G Protein-Coupled Receptor Assay for guinea pig Bradykinin Receptor B2 (BK2) (AID 2283292)
Procedure, shortened: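 Guinea pig ileum membrane preparation incubated 1 h with radioligand and test chemical; bound counts measured after filtration. Primary duplicate screening at 25 uM, then singleton concentration series with a 50 uM top dose; DMSO as baseline.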

[12] = target: rat Neurokinin-3 Receptor (NK3), Tacr3 (gene 24808) (UniProt P16177); assay: NVS_GPCR_rNK3: NovaScreen (NVS) G Protein-Coupled Receptor Assay for rat Neurokinin-3 Receptor (NK3) (AID 2283310)
Procedure, shortened: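 Filter-based radioligand displacement on rat cortex membrane preparations, read by scintillation 2 h post-dose. Chemicals first tested in duplicate at 25 uM; actives followed up in concentration series with a 50 uM maximum.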

[13] = read-out: ABC Transporter (ABCB1), ABCB1 (gene 5243); assay: CLD_ABCB1_6hr: CellzDirect (CLD) Gene Expression Assay for ABC Transporter (ABCB1) at 6 hours (AID 2283659)
Procedure, shortened: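 ABCB1 transcript measured by quantitative nuclease protection assay, chemiluminescent read-out, 6 h after dosing human hepatocyte cultures (0.2% DMSO vehicle, daily redosing). Activity fitted as increase over DMSO baseline; cytotoxicity flagged by phase-contrast morphology.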

[14] = read-out: Broad substrate specificity ATP-binding cassette transporter ABCG2 (Homo sapiens) (UniProt Q9UNQ0); assay: CLD_ABCG2_6hr: CellzDirect (CLD) Gene Expression Assay for ABC Transporter (ABCG2) at 6 hours (AID 2283660)
Procedure, shortened: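 ABCG2 mRNA induction measured by qNPA chemiluminescence in human primary hepatocyte cultures, 6 h post-dose. Chemicals tested at several concentrations against a 0.2% DMSO vehicle; positive-direction fit relative to DMSO.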

[15] = read-out: xenobiotic metabolism (CYP1A1), CYP1A1 (gene 1543); assay: CLD_CYP1A1_6hr: CellzDirect (CLD) Gene Expression Assay for xenobiotic metabolism (CYP1A1) at 6 hours (AID 2283661);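 also: potency for transcript induction above DMSO vehicle baseline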
Procedure, shortened: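 Read-out 6 h post-dose: qNPA chemiluminescent quantitation of transcript induction against 0.2% DMSO. Cells were cultured primary human hepatocytes from two separate donor preparations; phase-contrast morphology annotated apparent cytotoxicity.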

[16] = read-out: organic anion transporter (SLCO1B1), SLCO1B1 (gene 10599); assay: CLD_SLCO1B1_6hr: CellzDirect (CLD) Gene Expression Assay for organic anion transporter (SLCO1B1) at 6 hours (AID 2283668);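 also: active means mRNA induction above DMSO baseline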
Procedure, shortened: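 SLCO1B1 mRNA induction measured 6 h after dosing by quantitative nuclease protection with chemiluminescent read-out, in human primary hepatocyte cultures given chemicals at several concentrations (vehicle 0.2% DMSO). Increase over DMSO baseline fitted; morphology-based cytotoxicity annotated yes/no.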

[17] = read-out: sulfotransferase (SULT2A), SULT2A1 (gene 6822); assay: CLD_SULT2A_6hr: CellzDirect (CLD) Gene Expression Assay for sulfotransferase (SULT2A) at 6 hours (AID 2283669);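 also: hits raise transcript level above the DMSO vehicle baseline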
Procedure, shortened: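 Measured 6 h after dosing, SULT2A1 mRNA in human hepatocyte lysates was quantified by S1 nuclease protection with chemiluminescent detection. Increases fitted against 0.2% DMSO vehicle baseline; phase-contrast cytotoxicity recorded yes/no.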

[18] = read-out: glucuronosyltransferase (UGT1A1), UGT1A1 (gene 54658); assay: CLD_UGT1A1_6hr: CellzDirect (CLD) Gene Expression Assay for glucuronosyltransferase (UGT1A1) at 6 hours (AID 2283672)
Procedure, shortened: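 UGT1A1 mRNA induction, read by quantitative nuclease protection assay, 6 h after dosing primary human hepatocytes (two donors, 0.2% DMSO vehicle). Gain of signal fitted relative to vehicle.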

[19] = read-out: Cytochrome P450 2B6 (Homo sapiens) (UniProt P20813); assay: CLD_CYP2B6_6hr: CellzDirect (CLD) Gene Expression Assay for xenobiotic metabolism (CYP2B6) at 6 hours (AID 2283677);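 also: actives raise CYP2B6 transcript above DMSO baseline so AC50 marks an inducer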
Procedure, shortened: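 CYP2B6 transcript levels, read by chemiluminescent qNPA, were fitted for increase versus DMSO baseline; cultured human liver hepatocytes from two donor preparations were harvested 6 h after exposure to test chemicals at multiple concentrations.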

[20] = read-out: Cytochrome P450 3A4 (Homo sapiens) (UniProt P08684); assay: CLD_CYP3A4_6hr: CellzDirect (CLD) Gene Expression Assay for xenobiotic metabolism (CYP3A4) at 6 hours (AID 2283680)
Procedure, shortened: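 CYP3A4 mRNA induction, 6 h after dosing of cultured primary human hepatocytes from two donors, read by quantitative nuclease protection (qNPA, chemiluminescence). Vehicle 0.2% DMSO as baseline; morphology-based cytotoxicity annotated yes/no.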

**Q.** Which AC50 [1] does the source give for `S=C(S)NCCNC(=S)S.[Mn+2].[S-]C([S-])=NCCN=C([S-])[S-].[Zn+2]` here?
**A.** The AC50 was inconclusive: 20000 nM.

**Q.** What about the AC50 [2] of the same compound?
**A.** Its AC50 is inconclusive: 120 nM.

**Q.** And the outcome [3]?
**A.** Its outcome is “inactive”.

**Q.** With `Nc1nc(N)nc(-c2ccccc2)n1` as the compound, how does the outcome [4] read?
**A.** Its outcome is “inactive”.

**Q.** Which outcome [5] does the source give for `CC(=O)OCc1ccccc1` here?
**A.** Its outcome is “inactive”.

**Q.** Which results are given for `O=C(O)c1cc(N=Nc2ccc(S(=O)(=O)Nc3ccccn3)cc2)ccc1O`?
**A.** outcome [6]: inactive; outcome [7]: inactive

**Q.** With `S=C([S-])NCCNC(=S)[S-].[Mn+2]` as the compound, how does the AC50 [8] read?
**A.** The AC50 was inconclusive: 25000 nM.

**Q.** And the AC50 [9]?
**A.** Its AC50 is inconclusive: 62.7 nM.

**Q.** What about the AC50 [10] of the same compound?
**A.** Its AC50 is active: 479 nM.

**Q.** And the AC50 [11]?
**A.** Its AC50 is active: 30500 nM.

**Q.** And the outcome [12]?
**A.** Its outcome is “inactive”.

**Q.** And the AC50 [13]?
**A.** The AC50 was inconclusive: 2710 nM.

**Q.** What about the AC50 [14] of the same compound?
**A.** The AC50 was inconclusive: 1890 nM.

**Q.** What about the AC50 [15] of the same compound?
**A.** Its AC50 is inconclusive: 8.86 nM.

**Q.** And the outcome [16]?
**A.** The outcome was “inactive”.

**Q.** What about the AC50 [17] of the same compound?
**A.** Its AC50 is active: 3970 nM.

**Q.** And the AC50 [18]?
**A.** The AC50 was inconclusive: 4770 nM.

**Q.** What about the AC50 [19] of the same compound?
**A.** Its AC50 is inconclusive: 2760 nM.

**Q.** And the AC50 [20]?
**A.** The AC50 was inconclusive: 1890 nM.
